# Measured data: PubChem BioAssay AID493246 (Drosophila RNAi Screening Center, 2011)
# Test: 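Genes fly cells need to grow and stay alive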 (primary screen)
# System: Drosophila Kc and S2R+ cells
# Reagents: long dsRNA against Drosophila genes
# Measured: 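Cell number per well after knock-down, printed as raw plate values; calls were based on per-plate z-scores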
# Direction: Kc cell number and S2R+ cell number: higher = more cells remaining
# Rule for the call: 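Counted as a hit if cell number falls by a z-score of at least 3 within its plate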
# In all, the deposit lists about 21,000 reagents; shown is a random part of those that have a named target and a result. In the full data, 429 (2%) got an active call. 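Values are raw and not normalised between plates; calls rest on per-plate z-scores that were not deposited.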 Entries without a mark were called inactive. The numbers tell different reagents against one gene apart. Names joined by + are all predicted targets of the reagent. Reagent sequences are not shown. The record does not give: the amount of reagent, the time to read-out.
Target gene,dsRNA no.,"Kc cell number, rep 1","Kc cell number, rep 2","S2R+ cell number, rep 1","S2R+ cell number, rep 2"
CG2681 (GeneID 31258),1,5.54e5,,8.35e5,
Ir7g (GeneID 31694),1,1.52e6,1.43e6,9.85e5,1.12e6
Rab4 + CG42239,1,5.49e5,,8.85e5,
Pten (GeneID 43991),1,1.40e6,1.48e6,1.16e6,1.30e6
CG33998 (GeneID 3885594),1,5.30e5,,7.40e5,
lbl (GeneID 42541),1,1.41e6,1.49e6,1.04e6,1.14e6
CG13000 (GeneID 32685),1,1.49e6,1.56e6,9.68e5,1.10e6
CG32221 (GeneID 317924),1,1.37e6,1.47e6,1.09e6,1.27e6
Cpr73D (GeneID 39897),1,1.58e6,1.60e6,1.36e6,1.35e6
CG33296 (GeneID 2768941),1,1.37e6,1.44e6,9.09e5,1.04e6
CG18139 (retired record) + Hmx,1,1.46e6,1.59e6,8.97e5,9.70e5
hll (GeneID 34822),1,1.09e6,1.16e6,1.02e6,1.07e6
CG9801 (GeneID 41044),1,1.53e6,1.65e6,1.20e6,1.30e6
ttv (GeneID 36614),1,1.46e6,1.49e6,1.18e6,1.29e6
Or59b (GeneID 37715),1,1.56e6,1.64e6,1.34e6,1.36e6
Cyp4ac2 (GeneID 33755),1,1.69e6,1.58e6,1.24e6,1.42e6
AP-1-2beta (GeneID 32987),1,1.51e6,1.51e6,1.00e6,1.16e6
Nmdmc (GeneID 47895),1,1.57e6,1.64e6,1.23e6,1.30e6
Use1 (GeneID 39051),1,1.65e6,1.48e6,1.22e6,1.17e6
Ndc80 (GeneID 32316),1,7.39e5,,8.55e5,
Cpes (GeneID 37782),1,1.35e6,1.38e6,8.44e5,8.53e5
Cpr47Eb (GeneID 36189),1,1.58e6,1.58e6,1.31e6,1.37e6
bab2 (GeneID 44254),1,1.47e6,1.28e6,9.55e5,1.24e6
bab2 (GeneID 44254),2,1.35e6,1.16e6,7.42e5,9.11e5
Mec2 (GeneID 32905),1,1.69e6,1.71e6,1.11e6,1.23e6
Cda9 (GeneID 36934),1,1.47e6,1.55e6,1.19e6,1.28e6
Klp67A + CG34456,1,1.72e6,1.60e6,1.38e6,1.56e6
CG5565 (GeneID 33323),1,1.61e6,1.58e6,1.05e6,1.23e6
CG10725 (GeneID 39510),1,1.46e6,1.53e6,1.47e6,1.20e6

Look-ups from the list:
Result for CG33998 (GeneID 3885594) under “S2R+ cell number, rep 1”: 7.40e5
Entry of Or59b (GeneID 37715) in “S2R+ cell number, rep 1”: 1.34e6
Under “S2R+ cell number, rep 2”, Nmdmc (GeneID 47895) is entered as 1.30e6
Result for AP-1-2beta (GeneID 32987) in “Kc cell number, rep 2”: 1.51e6
Result for Cpr47Eb (GeneID 36189) in “Kc cell number, rep 1”: 1.58e6
Result of Klp67A + CG34456 in “Kc cell number, rep 1”: 1.72e6

Next results follow.
Target gene,dsRNA no.,"Kc cell number, rep 1","Kc cell number, rep 2","S2R+ cell number, rep 1","S2R+ cell number, rep 2"
a5 (GeneID 33317),1,1.57e6,1.63e6,1.10e6,1.26e6
CG17776 (GeneID 50373),1,1.56e6,1.55e6,1.07e6,1.25e6
CG31872 (GeneID 34458),1,1.71e6,1.66e6,1.12e6,1.29e6
CG31872 (GeneID 34458),2,1.76e6,1.76e6,1.20e6,1.40e6
Exo84 (GeneID 43163),1,1.53e6,1.62e6,9.50e5,1.06e6
hlk (GeneID 46017),1,1.63e6,1.65e6,1.33e6,1.37e6
hlk (GeneID 46017),2,1.62e6,1.57e6,1.42e6,1.31e6
Kr (GeneID 38012),1,1.68e6,1.56e6,1.37e6,1.47e6
tal-1A + tal-2A + tal-AA + 1 more,1,1.36e6,1.55e6,1.03e6,1.22e6
CG11710 (GeneID 33044),1,1.45e6,1.40e6,9.80e5,1.06e6
CG4743 (GeneID 43101),1,1.53e6,1.49e6,9.35e5,1.06e6
Eig71Ei (GeneID 39710),1,1.33e6,1.37e6,1.18e6,1.33e6
PH4alphaNE2 (GeneID 43628),1,1.63e6,1.66e6,1.05e6,1.13e6
CG34396 (GeneID 37398),1,1.66e6,1.69e6,1.17e6,4.41e5
CG34396 (GeneID 37398),2,1.48e6,1.64e6,1.31e6,5.59e5
fng (GeneID 40314),1,1.32e6,1.25e6,1.01e6,1.19e6
fng (GeneID 40314),2,1.54e6,1.58e6,1.36e6,1.39e6
CG14591 (GeneID 35531),1,1.71e6,1.79e6,1.23e6,1.37e6
Vrp1 (GeneID 37521),1,1.36e6,1.48e6,1.02e6,9.80e5
LysE (GeneID 38128),1,1.41e6,1.27e6,9.38e5,1.25e6
Gbp2 (GeneID 36937),1,1.42e6,1.48e6,1.11e6,1.00e6
CG34457 (GeneID 5740661),1,1.54e6,1.56e6,1.23e6,1.38e6
betaNACtes4 (GeneID 32389),1,1.46e6,1.45e6,1.00e6,1.09e6
Theg (GeneID 42585),1,1.51e6,1.60e6,1.26e6,1.28e6
CG9815 (GeneID 37710),1,1.55e6,1.59e6,1.23e6,1.35e6
CG15365 (GeneID 31829),1,7.51e5 (active),8.37e5,4.75e5,5.25e5
CG3520 (GeneID 37708),1,1.57e6,1.70e6,1.23e6,1.32e6
ubl (GeneID 35592),1,1.68e6,1.71e6,1.11e6,1.29e6
CG32225 (GeneID 317926),1,1.78e6,1.82e6,1.19e6,1.43e6
CG5800 (GeneID 32742),1,1.52e6,1.60e6,1.09e6,1.22e6
